Experimental data published in the supplement of paper PMC10849652.
The other results are listed elsewhere or left out.

Amino acid sequences for entries named in this document (tags omitted). A change or cut given only in a name is not applied to a line headed by its entry.
UniProt O75521: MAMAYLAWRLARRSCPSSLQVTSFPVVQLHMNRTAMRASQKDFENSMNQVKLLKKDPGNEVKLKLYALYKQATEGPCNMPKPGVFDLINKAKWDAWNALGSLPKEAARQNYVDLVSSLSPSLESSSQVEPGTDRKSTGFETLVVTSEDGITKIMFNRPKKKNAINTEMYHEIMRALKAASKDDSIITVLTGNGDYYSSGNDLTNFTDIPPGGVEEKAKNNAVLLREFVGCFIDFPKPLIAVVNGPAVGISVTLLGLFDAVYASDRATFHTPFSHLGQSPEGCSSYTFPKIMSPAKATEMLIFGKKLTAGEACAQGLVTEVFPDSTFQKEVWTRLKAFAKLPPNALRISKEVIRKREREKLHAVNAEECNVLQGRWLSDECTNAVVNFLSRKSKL
UniProt O00115: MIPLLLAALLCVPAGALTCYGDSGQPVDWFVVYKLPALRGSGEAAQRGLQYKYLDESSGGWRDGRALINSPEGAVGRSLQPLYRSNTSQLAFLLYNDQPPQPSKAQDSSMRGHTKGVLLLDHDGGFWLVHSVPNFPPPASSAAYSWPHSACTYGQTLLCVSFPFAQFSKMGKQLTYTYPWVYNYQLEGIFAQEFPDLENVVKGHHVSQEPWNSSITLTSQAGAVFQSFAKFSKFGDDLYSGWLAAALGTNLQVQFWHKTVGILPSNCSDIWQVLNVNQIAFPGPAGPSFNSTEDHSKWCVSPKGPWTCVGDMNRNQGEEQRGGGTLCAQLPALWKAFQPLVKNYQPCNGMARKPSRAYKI
UniProt Q9UBS4: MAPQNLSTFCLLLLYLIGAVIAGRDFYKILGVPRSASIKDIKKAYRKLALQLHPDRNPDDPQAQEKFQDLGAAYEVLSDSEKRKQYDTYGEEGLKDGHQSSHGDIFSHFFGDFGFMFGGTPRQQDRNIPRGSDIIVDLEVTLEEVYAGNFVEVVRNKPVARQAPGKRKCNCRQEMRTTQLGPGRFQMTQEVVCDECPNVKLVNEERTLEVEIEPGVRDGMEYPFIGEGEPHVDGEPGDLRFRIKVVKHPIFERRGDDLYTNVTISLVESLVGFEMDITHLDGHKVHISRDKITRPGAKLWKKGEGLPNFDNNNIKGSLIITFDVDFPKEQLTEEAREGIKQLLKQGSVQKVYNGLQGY
UniProt Q9BTV6: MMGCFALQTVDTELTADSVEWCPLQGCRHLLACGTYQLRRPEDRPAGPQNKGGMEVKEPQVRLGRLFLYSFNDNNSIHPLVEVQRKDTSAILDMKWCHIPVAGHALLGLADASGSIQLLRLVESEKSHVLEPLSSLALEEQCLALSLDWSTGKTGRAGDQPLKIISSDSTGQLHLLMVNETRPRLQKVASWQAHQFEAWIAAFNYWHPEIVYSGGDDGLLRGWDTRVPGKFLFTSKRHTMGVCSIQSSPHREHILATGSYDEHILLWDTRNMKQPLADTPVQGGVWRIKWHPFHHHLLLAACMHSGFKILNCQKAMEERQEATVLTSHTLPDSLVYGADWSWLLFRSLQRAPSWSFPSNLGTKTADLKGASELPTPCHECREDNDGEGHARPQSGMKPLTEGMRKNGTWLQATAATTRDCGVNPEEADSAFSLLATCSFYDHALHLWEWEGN
UniProt Q9Y295: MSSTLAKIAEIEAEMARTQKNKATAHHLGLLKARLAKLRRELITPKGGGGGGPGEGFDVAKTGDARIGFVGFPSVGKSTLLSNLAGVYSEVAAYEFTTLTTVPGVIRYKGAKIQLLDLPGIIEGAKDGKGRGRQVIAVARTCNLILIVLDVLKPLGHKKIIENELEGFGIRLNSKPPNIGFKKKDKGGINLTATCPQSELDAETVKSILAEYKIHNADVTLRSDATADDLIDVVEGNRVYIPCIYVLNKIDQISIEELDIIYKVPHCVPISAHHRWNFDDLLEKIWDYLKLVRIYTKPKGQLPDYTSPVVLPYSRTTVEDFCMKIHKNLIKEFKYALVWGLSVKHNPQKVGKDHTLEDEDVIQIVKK
UniProt Q7L591: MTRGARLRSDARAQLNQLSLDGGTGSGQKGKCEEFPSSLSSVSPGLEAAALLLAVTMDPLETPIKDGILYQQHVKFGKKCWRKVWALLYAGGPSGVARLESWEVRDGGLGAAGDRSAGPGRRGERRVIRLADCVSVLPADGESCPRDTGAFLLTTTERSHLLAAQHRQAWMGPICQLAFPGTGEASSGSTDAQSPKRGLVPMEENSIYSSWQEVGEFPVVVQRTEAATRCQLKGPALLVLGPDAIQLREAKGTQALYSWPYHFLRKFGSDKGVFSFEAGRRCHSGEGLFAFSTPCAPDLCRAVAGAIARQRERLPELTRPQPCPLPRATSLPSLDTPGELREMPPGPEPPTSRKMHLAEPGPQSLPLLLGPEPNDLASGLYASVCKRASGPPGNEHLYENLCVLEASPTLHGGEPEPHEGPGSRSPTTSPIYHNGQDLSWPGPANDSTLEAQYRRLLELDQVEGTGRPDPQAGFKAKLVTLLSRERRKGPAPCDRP
UniProt Q96FX2: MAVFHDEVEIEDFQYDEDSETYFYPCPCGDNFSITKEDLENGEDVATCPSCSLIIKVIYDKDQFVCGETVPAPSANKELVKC
UniProt Q99704: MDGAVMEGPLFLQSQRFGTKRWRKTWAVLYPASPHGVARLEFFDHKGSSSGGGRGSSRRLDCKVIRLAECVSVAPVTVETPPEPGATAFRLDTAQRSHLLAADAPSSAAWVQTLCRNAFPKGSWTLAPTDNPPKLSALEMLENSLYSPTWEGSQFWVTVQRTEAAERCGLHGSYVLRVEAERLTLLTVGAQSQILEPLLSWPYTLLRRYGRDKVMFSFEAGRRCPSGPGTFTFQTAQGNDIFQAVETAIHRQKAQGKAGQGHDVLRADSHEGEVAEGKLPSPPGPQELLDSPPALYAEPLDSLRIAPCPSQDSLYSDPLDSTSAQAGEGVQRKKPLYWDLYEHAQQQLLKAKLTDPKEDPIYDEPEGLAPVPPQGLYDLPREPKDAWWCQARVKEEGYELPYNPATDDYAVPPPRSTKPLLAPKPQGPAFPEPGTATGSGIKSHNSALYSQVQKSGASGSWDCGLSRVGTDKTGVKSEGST
UniProt O00429, whole entry, looked up: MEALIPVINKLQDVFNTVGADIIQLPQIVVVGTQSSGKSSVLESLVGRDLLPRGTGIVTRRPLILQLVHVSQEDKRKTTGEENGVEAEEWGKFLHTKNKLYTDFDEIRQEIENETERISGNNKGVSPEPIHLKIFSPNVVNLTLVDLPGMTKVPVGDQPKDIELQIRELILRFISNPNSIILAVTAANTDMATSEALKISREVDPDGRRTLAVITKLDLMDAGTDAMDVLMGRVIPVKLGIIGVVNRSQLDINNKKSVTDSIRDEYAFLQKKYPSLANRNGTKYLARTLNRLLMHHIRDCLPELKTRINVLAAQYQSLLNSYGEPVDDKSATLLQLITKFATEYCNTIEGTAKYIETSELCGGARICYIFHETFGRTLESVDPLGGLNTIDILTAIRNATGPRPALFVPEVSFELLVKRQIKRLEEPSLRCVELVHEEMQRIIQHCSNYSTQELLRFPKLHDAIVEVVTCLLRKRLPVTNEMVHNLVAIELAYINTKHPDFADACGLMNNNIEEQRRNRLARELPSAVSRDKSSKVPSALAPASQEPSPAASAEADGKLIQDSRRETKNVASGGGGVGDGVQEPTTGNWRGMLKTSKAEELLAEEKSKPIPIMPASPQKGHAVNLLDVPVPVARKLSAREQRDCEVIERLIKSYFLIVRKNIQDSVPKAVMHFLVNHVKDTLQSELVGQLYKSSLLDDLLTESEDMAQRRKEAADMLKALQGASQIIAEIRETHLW
UniProt Q5JSL3: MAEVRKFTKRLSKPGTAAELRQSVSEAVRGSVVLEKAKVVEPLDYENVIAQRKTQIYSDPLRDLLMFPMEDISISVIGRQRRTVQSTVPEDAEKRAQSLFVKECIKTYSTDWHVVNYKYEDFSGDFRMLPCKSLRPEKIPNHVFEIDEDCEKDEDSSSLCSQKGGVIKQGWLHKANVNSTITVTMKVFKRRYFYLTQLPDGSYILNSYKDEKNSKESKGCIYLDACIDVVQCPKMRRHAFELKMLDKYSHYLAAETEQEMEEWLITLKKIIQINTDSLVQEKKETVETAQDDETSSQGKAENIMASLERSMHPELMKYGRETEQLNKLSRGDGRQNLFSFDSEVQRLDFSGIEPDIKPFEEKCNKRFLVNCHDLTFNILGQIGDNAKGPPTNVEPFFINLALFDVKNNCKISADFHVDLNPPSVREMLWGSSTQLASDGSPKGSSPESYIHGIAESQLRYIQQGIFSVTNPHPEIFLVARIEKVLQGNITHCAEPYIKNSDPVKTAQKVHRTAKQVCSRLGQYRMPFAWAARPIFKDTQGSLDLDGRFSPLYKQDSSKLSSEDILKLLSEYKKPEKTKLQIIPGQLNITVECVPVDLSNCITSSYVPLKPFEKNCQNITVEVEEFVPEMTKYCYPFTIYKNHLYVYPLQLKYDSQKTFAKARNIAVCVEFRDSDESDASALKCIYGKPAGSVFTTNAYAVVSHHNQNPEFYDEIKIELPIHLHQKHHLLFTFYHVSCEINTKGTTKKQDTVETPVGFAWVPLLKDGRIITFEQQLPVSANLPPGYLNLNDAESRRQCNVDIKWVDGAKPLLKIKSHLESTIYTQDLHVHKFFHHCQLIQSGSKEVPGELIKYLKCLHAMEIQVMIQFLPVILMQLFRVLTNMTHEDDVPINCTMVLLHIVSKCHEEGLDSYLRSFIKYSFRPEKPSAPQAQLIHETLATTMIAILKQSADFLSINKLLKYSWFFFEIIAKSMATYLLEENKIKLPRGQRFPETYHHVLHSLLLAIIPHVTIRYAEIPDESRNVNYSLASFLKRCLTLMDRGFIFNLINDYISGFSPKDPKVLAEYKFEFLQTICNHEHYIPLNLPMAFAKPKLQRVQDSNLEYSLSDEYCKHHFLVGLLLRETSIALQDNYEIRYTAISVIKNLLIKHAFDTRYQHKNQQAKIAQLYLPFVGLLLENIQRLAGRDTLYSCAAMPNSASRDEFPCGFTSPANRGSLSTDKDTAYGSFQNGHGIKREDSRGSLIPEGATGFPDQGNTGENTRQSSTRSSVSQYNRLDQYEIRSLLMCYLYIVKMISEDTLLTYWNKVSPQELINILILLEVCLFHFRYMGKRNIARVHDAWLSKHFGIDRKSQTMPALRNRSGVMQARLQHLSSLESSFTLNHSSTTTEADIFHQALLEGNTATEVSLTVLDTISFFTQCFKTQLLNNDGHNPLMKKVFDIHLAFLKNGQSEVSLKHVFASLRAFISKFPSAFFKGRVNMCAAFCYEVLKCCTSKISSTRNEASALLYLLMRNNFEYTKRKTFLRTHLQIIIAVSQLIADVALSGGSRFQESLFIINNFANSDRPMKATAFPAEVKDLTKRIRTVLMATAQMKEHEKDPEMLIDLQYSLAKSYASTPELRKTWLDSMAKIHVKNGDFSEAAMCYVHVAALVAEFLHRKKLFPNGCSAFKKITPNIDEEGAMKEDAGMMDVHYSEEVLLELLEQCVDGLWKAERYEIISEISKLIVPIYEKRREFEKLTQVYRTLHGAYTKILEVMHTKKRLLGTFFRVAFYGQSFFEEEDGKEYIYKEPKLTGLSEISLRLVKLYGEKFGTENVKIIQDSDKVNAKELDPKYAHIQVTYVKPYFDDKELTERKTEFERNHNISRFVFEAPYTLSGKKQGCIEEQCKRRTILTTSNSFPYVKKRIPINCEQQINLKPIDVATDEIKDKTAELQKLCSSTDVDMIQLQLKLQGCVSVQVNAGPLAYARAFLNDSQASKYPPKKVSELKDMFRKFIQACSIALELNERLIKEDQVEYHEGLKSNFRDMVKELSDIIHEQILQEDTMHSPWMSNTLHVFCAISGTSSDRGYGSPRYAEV
UniProt P30084: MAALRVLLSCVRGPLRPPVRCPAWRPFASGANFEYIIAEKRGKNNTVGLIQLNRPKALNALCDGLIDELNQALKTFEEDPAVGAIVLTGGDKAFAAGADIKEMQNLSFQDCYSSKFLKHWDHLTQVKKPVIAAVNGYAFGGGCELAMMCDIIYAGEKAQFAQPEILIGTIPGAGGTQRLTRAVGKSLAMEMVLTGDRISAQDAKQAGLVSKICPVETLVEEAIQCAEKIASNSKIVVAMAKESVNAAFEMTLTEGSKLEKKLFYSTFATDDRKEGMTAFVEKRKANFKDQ
UniProt Q9BQC3: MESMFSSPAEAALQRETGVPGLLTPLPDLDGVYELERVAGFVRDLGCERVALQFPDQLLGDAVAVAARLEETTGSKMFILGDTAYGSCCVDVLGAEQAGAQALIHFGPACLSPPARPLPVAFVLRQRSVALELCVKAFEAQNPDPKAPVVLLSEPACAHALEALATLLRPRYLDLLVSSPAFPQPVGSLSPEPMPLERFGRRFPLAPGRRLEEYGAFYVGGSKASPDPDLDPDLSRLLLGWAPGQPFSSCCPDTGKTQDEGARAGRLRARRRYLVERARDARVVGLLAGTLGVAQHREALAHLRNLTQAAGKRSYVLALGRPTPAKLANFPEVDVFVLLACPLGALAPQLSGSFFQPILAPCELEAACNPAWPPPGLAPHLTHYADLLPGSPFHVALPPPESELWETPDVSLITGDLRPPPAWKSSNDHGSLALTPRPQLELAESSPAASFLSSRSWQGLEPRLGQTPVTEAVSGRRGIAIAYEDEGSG

Columns and labels:
Test in all cases: log2 fold change, soluble protein after heating vs DMSO (PISA); higher = thermal stabilisation; K562 cells, 10 uM, 30 min; active = over 0.2 and 3.5 SD of the protein, either way, in both replicates (recomputed)
[1] = compound: C1=CC=C(C=C1)[C@H](COC2=CC3=C(C=C2)NC(=O)N3)NC(=O)C4=CC=CN(C4=O)CC5=CC(=C(C=C5)F)F
Procedure, shortened: (§1)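 K562 cells at 2×10^6 cells/mL were exposed to 10 μM compound for 30 min, then aliquots were heated for 3 min across 48°C-58°C, pooled, and extracted in PBS containing 0.5% NP-40 at 4°C. The supernatant after 21,000xg for 90 min was taken as soluble protein and measured by TMTpro 16plex LC-MS/MS with channel sums equalised. Thermal stability is reported relative to control samples, with values from duplicates. Fold changes are given on a log2 scale.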

[2] = compound: CC1=C(SC2=C1C(=N[C@H](C3=NN=C(N32)C)CC(=O)N)C4=CC=C(C=C4)Cl)C
Procedure, shortened: as §1

[3] = compound: CC1=C2C(=CC=C1)N=C(N(C2=O)C3=CC=CC=C3C)CN4C=NC5=C(N=CN=C54)N
Procedure, shortened: as §1

[4] = compound: Cc1sc2c(c1C)C(c1ccc(Cl)cc1)=N[C@@H](CC(=O)OC(C)(C)C)c1nnc(C)n1-2
Procedure, shortened: as §1

[5] = compound: c1ccc([C@@H]2C[C@H]2NC2CCNCC2)cc1
Procedure, shortened: as §1

Measured: log2 fold change

ECI2 (UniProt O75521)
inactive: [1] -0.047 | [2] 0.052 | [3] 0.027 | [4] -0.041 | [5] 0

DTWD1 (UniProt Q8N5C7)
inactive: [1] -0.051 | [2] -0.011 | [3] 0.152 | [4] -0.056 | [5] 0.07

DUS2 (UniProt Q9NX74)
inactive: [1] 0.024 | [2] 0.055 | [3] 0.109 | [4] -0.087 | [5] -0.023

DSG2 (UniProt Q14126)
inactive: [1] -0.01 | [2] 0.078 | [3] 0.037 | [4] 0.034 | [5] 0.038

DPP8 (UniProt Q6V1X1)
inactive: [1] -0.112 | [2] 0.029 | [3] 0.145 | [4] -0.033 | [5] 0.005

DNAJC16 (UniProt Q9Y2G8)
inactive: [1] 0.246 | [2] -0.041 | [3] -0.007 | [4] 0.118 | [5] -0.032

DUSP3 (UniProt P51452)
inactive: [1] -0.055 | [2] 0.134 | [3] 0.021 | [4] -0.024 | [5] -0.005

DPAGT1 (UniProt Q9H3H5)
inactive: [1] -0.027 | [2] -0.009 | [3] -0.072 | [4] -0.084 | [5] 0.016

DNASE2 (UniProt O00115)
inactive: [1] 0.018 | [2] 0.003 | [3] 0.021 | [4] 0.009 | [5] 0.051

DYNC1LI1 (UniProt Q9Y6G9)
inactive: [1] -0.023 | [2] 0.019 | [3] -0.001 | [4] -0.002 | [5] -0.015

DPH6 (UniProt Q7L8W6)
inactive: [1] -0.001 | [2] -0.017 | [3] 0.126 | [4] 0.003 | [5] -0.076

EDEM2 (UniProt Q9BV94)
inactive: [1] 0.194 | [2] 0.042 | [3] 0.013 | [4] -0.046 | [5] 0.012

DNAJA3 (UniProt Q96EY1)
inactive: [1] -0.011 | [2] -0.018 | [3] 0.039 | [4] 0.065 | [5] -0.054

E2F4 (UniProt Q16254)
inactive: [1] 0.006 | [2] 0.039 | [3] 0.098 | [4] 0.022 | [5] -0.001

DNAJB11 (UniProt Q9UBS4)
inactive: [1] 0.009 | [2] 0 | [3] -0.02 | [4] 0.042 | [5] 0.041

DUSP12 (UniProt Q9UNI6)
inactive: [1] -0.069 | [2] 0.045 | [3] 0.076 | [4] 0.011 | [5] -0.073

DPH7 (UniProt Q9BTV6)
inactive: [1] 0.024 | [2] 0.028 | [3] 0.009 | [4] -0.063 | [5] -0.025

EDEM3 (UniProt Q9BZQ6)
inactive: [1] 0.053 | [2] -0.073 | [3] -0.008 | [4] 0.026 | [5] -0.009

EAF1 (UniProt Q96JC9)
inactive: [1] 0.064 | [2] -0.091 | [3] -0.059 | [4] 0.119 | [5] 0.129

DPY19L4 (UniProt Q7Z388)
inactive: [1] -0.025 | [2] -0.259 | [3] 0.092 | [4] 0.043 | [5] 0.133

DRG1 (UniProt Q9Y295)
inactive: [1] 0.031 | [2] -0.021 | [3] 0.008 | [4] 0.001 | [5] -0.001

DNAJB6 (UniProt O75190)
inactive: [1] 0.033 | [2] 0.035 | [3] 0.057 | [4] -0.091 | [5] 0.071

DOK3 (UniProt Q7L591)
inactive: [1] -0.049 | [2] 0.116 | [3] 0.109 | [4] -0.091 | [5] 0.012

DPP7 (UniProt Q9UHL4)
inactive: [1] 0.039 | [2] 0.024 | [3] 0.032 | [4] 0.019 | [5] 0.028

EDC3 (UniProt Q96F86)
inactive: [1] -0.198 | [2] 0.12 | [3] 0.019 | [4] 0.063 | [5] 0.026

DPH1 (UniProt Q9BZG8)
inactive: [1] -0.018 | [2] 0.001 | [3] -0.037 | [4] 0.023 | [5] 0.035

DPH3 (UniProt Q96FX2)
inactive: [1] -0.477 | [2] -0.038 | [3] 0.062 | [4] -0.008 | [5] 0.105

ECH1 (UniProt Q13011)
inactive: [1] -0.072 | [2] 0.161 | [3] 0.086 | [4] -0.114 | [5] -0.046

DUSP23 (UniProt Q9BVJ7)
inactive: [1] -0.042 | [2] 0.179 | [3] 0.144 | [4] -0.179 | [5] 0

EDC4 (UniProt Q6P2E9)
inactive: [1] 0.02 | [2] -0.004 | [3] 0.075 | [4] 0.023 | [5] 0.024

DYNC1H1 (UniProt Q14204)
inactive: [1] -0.006 | [2] 0.02 | [3] 0.023 | [4] -0.013 | [5] -0.048

ECHDC1 (UniProt Q9NTX5)
inactive: [1] 0.017 | [2] 0.018 | [3] 0.035 | [4] 0.003 | [5] 0.049

DNAJB1 (UniProt P25685)
inactive: [1] -0.019 | [2] 0.015 | [3] 0.066 | [4] -0.003 | [5] -0.026

DYNLT1 (UniProt P63172)
inactive: [1] -0.022 | [2] 0.139 | [3] 0.087 | [4] 0.06 | [5] -0.104

DNTTIP2 (UniProt Q5QJE6)
inactive: [1] -0.068 | [2] -0.117 | [3] -0.021 | [4] 0.087 | [5] 0.132

DNAJC9 (UniProt Q8WXX5)
inactive: [1] 0.026 | [2] 0.044 | [3] 0.08 | [4] 0.001 | [5] -0.006

DOK1 (UniProt Q99704)
inactive: [1] -0.063 | [2] 0.052 | [3] 0.049 | [4] -0.05 | [5] -0.054

DTWD2 (UniProt Q8NBA8)
inactive: [1] -0.011 | [2] 0.125 | [3] 0.064 | [4] 0.043 | [5] -0.036

DRAP1 isoform 2 (UniProt Q14919)
inactive: [1] 0.016 | [2] 0.024 | [3] -0.007 | [4] -0.006 | [5] 0.01

DNAJC8 (UniProt O75937)
inactive: [1] -0.017 | [2] 0.043 | [3] 0.053 | [4] -0.01 | [5] 0

DNM1L isoform 2 (UniProt O00429)
inactive: [1] -0.138 | [2] -0.106 | [3] 0.012 | [4] 0 | [5] 0.015

DOCK11 (UniProt Q5JSL3)
inactive: [1] -0.045 | [2] 0.045 | [3] 0.089 | [4] 0.02 | [5] -0.004

Fetched one by one from the entries so far (2):
EDC3 (UniProt Q96F86)
inactive: [1] -0.198 | [2] 0.12 | [3] 0.019 | [4] 0.063 | [5] 0.026

DPP7 (UniProt Q9UHL4)
inactive: [1] 0.039 | [2] 0.024 | [3] 0.032 | [4] 0.019 | [5] 0.028

Next part.

ECHS1 (UniProt P30084)
inactive: [1] -0.017 | [2] 0.072 | [3] -0.052 | [4] 0.01 | [5] -0.05

DNAJC12 (UniProt Q9UKB3)
inactive: [1] 0.028 | [2] 0.028 | [3] 0.039 | [4] 0.018 | [5] 0.039

DNAJC7 (UniProt Q99615)
inactive: [1] -0.045 | [2] 0.043 | [3] 0.072 | [4] -0.013 | [5] 0

ECSIT (UniProt Q9BQ95)
inactive: [1] 0.011 | [2] 0.027 | [3] 0.053 | [4] -0.008 | [5] 0.055

DPH2 (UniProt Q9BQC3)
inactive: [1] -0.006 | [2] 0.024 | [3] 0.021 | [4] -0.004 | [5] -0.031

DPP3 (UniProt Q9NY33)
inactive: [1] -0.033 | [2] 0.049 | [3] 0.051 | [4] -0.043 | [5] -0.05

ECE1 (UniProt P42892)
inactive: [1] 0.039 | [2] 0.085 | [3] 0.067 | [4] 0.058 | [5] -0.045

DTL (UniProt Q9NZJ0)
inactive: [1] -0.035 | [2] 0.07 | [3] 0.12 | [4] -0.036 | [5] -0.038

DUS4L (UniProt O95620)
inactive: [1] 0.17 | [2] -0.057 | [3] 0.07 | [4] 0 | [5] 0.031

DYM (UniProt Q7RTS9)
inactive: [1] 0.052 | [2] 0 | [3] 0.143 | [4] -0.06 | [5] -0.052

EEA1 (UniProt Q15075)
inactive: [1] 0.022 | [2] -0.015 | [3] 0.011 | [4] 0.021 | [5] 0.038

ECD isoform 3 (UniProt O95905)
inactive: [1] -0.023 | [2] 0.112 | [3] 0.098 | [4] 0.107 | [5] 0.011
